Earlier results as cited in article PMC4281354, “The opioid receptor pharmacology of GSK1521498 compared to other ligands with differential effects on compulsive reward-related behaviours” (Psychopharmacology, 2014).

Conditions: sc pellet containing 75 mg morphine; ref Patrick et al. [1975]; cited from earlier work

In the case of `CN1CC[C@]23c4c5ccc(O)c4O[C@H]2[C@@H](O)C=C[C@H]3[C@H]1C5` [Morphine, morphine], the “brain morphine levels over the period of administration” value is given as “above 200 ng/g tissue” and the “brain morphine levels, peak” value is given as “around 600 ng/g tissue”.
